According to publication PMC4726432:
No constants are given. Whether binding was seen depends on the method and setting. In cells and extracts the contact can be indirect. Some binding calls cover weakened binding; strength is not graded here. Where a sequence is shown, tags or fusion partners need not be part of it.

Molecular target: T1, Myc-Irx3 (UniProt P81067)
T1 sequence: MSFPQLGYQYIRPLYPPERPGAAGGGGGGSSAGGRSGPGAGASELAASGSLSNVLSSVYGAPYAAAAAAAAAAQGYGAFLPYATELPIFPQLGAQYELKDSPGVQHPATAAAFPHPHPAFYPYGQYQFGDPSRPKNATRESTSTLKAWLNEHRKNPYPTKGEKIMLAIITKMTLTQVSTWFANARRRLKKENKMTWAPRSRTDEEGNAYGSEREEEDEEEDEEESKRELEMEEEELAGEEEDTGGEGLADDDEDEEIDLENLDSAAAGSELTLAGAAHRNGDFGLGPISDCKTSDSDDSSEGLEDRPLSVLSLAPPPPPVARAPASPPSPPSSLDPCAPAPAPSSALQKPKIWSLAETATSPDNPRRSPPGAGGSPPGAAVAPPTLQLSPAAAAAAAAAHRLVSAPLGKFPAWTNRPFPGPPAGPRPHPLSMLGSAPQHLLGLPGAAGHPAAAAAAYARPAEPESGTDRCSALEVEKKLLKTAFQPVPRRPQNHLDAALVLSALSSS
Assay: co-IP; COS-7 cells 48 hours after transfection with PCx, Myc-Irx3 and HA-Tbx5 constructs; incubation with the indicated antibodies overnight at 4 °C, protein G-Sepharose beads, immunoblot

binding: binds
B1: HA-Tbx5 (protein, UniProt P70326 1-518)
chain: MADTDEGFGLARTPLEPDSKDRSCDSKPESALGAPSKSPSSPQAAFTQQGMEGIKVFLHERELWLKFHEVGTEMIITKAGRRMFPSYKVKVTGLNPKTKYILLMDIVPADDHRYKFADNKWSVTGKAEPAMPGRLYVHPDSPATGAHWMRQLVSFQKLKLTNNHLDPFGHIILNSMHKYQPRLHIVKADENNGFGSKNTAFCTHVFPETAFIAVTSYQNHKITQLKIENNPFAKGFRGSDDLELHRMSRMQSKEYPVVPRSTVRHKVTSNHSPFSSETRALSTSSNLGSQYQCENGVSGPSQDLLPPPNPYPLAQEHSQIYHCTKRKDEECSSTEHPYKKPYMETSPSEEDTFYRSGYPQQQGLSTSYRTESAQRQACMYASSAPPSEPVPSLEDISCNTWPSMPSYSSCTVTTVQPMDRLPYQHFSAHFTSGPLVPRLAGMANHGSPQLGEGMFQHQTSVAHQPVVRQCGPQTGLQSPGGLQPPEFLYTHGVPRTLSPHQYHSVHGVGMVPEWSENS
